Experimental data from PMC9974998.
These are yes or no findings as the source states them, for the method shown. For some of these results: Binding seen in cells or lysates may run through a third protein. Some binding calls cover weakened binding; strength is not graded here. Each block holds one substance with its values, some of them ahead of it.

By UniProt entry, the sequences of proteins in these tests, tags left out.
UniProt Q15172: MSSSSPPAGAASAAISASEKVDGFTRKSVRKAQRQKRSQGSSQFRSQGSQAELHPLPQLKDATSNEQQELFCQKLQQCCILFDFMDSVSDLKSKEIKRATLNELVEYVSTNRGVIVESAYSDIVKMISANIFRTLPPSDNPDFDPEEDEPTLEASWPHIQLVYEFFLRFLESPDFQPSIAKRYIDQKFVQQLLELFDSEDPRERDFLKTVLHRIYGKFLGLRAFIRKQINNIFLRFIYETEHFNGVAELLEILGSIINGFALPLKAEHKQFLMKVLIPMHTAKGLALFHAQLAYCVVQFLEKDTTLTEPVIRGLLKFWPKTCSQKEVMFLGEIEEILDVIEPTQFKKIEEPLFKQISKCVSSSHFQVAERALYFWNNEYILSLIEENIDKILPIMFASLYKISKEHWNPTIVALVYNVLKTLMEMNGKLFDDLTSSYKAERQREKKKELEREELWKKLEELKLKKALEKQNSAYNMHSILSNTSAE
UniProt P30153: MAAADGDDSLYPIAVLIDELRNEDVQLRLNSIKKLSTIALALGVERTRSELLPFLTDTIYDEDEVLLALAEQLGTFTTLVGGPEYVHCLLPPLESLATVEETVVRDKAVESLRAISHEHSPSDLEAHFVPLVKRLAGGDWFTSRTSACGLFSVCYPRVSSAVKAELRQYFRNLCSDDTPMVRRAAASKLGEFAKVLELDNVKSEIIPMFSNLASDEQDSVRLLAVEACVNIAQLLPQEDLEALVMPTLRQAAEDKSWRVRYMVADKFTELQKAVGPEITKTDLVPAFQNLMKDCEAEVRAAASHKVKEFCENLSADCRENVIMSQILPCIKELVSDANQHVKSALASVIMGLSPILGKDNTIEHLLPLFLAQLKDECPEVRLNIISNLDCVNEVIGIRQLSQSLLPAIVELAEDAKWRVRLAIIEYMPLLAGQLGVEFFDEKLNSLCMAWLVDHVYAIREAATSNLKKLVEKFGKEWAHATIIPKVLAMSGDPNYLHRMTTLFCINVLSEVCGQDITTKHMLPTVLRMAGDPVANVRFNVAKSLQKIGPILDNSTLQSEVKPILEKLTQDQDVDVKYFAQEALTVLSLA

Assays:
[1] = molecular target: GFP-tagged B56α WT (human) (UniProt Q15172); experiment: co-IP; GFP-trap pull-down of GFP-B56α variants from HEK-293-T lysates (NET lysis buffer, NENT100 binding, NENT150 washes); immunoblot for PP2A-A and PP2Ac
[2] = molecular target: B56α (recombinant, WT) (human) (UniProt Q15172); experiment: pull-down; GST-CIP2A incubated with the pre-assembled PP2A-B56α holoenzyme (A-B56α-PP2Ac), glutathione beads; Coomassie gel and Western blot; CIP2A also titrated against equal molar amounts of PP2A proteins; both purified
[3] = molecular target: B56α (recombinant, WT) (human) (UniProt Q15172); experiment: SEC; pre-assembled A-B56α-PP2Ac trimer incubated with GST; Superdex 5/150, 28 mM Tris pH 7.2, 150 mM NaCl, 0.05% NP-40, 1.25% glycerol, 2 mM DTT, room temperature; 50 pmol of each protein; fractions by Western blot; both purified
GST-BubR1(647-720) = GST-BubR1(647-720) (UniProt O60566); experiment: pull-down; competition: GST-BubR1(647-720), B56α and CIP2A(1-560)V5, 10 pmol each, glutathione bead pull-down, B56α on BubR1 by Western blot; both purified

binding [1]: binds
Substance: endogenous PP2A-A subunit (HEK-293-T) (from UniProt P30153 1-589)

binding [2]: binds
binding [3]: binds
Substance: PP2A-A subunit (recombinant) (from UniProt P30153 1-589)

Substance: CIP2A(1-560)V5 His (from UniProt Q8TCG1 1-560) (domain or fragment)
binding (GST-BubR1(647-720)): no binding (tested: 10 pmol of each protein)
